Among the data in PMC7819943, “Rice protein-binding microarrays: a tool to detect cis-acting elements near promoter regions in rice” are binding signal values, retold here.

By UniProt entry, the sequences of proteins in these tests, tags left out.
UniProt Q0JBA9, entry or part of it: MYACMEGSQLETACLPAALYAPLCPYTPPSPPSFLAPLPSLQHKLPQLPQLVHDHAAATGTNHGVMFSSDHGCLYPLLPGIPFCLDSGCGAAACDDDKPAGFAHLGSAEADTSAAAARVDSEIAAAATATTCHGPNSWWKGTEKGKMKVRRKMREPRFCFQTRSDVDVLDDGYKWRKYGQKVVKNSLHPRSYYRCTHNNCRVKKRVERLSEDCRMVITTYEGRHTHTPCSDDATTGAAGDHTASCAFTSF

Some of the results follow.

This test deals with OsWRKY34 (Oryza sativa, UniProt Q0JBA9 1-250). The test is described as follows: protein-binding microarray (RPBM); PBS, 2% BSA, 51.3 ng/ul salmon testes DNA, 50 uM zinc acetate, 200 nM TF, 25 C, 1 h; high values mean tight binding. The settings on record: protein: recombinant; tags: N-terminal polyhistidine and DsRed monomer fusion (pET32a); label: CyDye5-dUTP incorporated in the synthesized complementary strand; 3' TTTTT single-stranded linker to array surface; dsDNA, one strand shown. An outline of the steps:
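A custom Agilent array was converted to double-stranded form by primer extension with Cy5-dUTP and blocked with 2% BSA. Protein at 200 nM in PBS with 2% BSA, salmon testes DNA and 50 µM zinc acetate was applied for 1 h at 25 °C, followed by washing. The proteins were polyhistidine–DsRed N-terminal fusions of transcription factors, expressed in E. coli BL21-CodonPlus and Ni–NTA-purified. The binding signal is per-feature fluorescence intensity (arbitrary units) from an Axon 4000B scanner.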
With “GGAGGGGAGGTCTGTGATGTCAACAAGTTAGGAGCGAGGACGGAGTCACCTAGTGCAG”, the binding signal is 10800 fluorescence intensity (a.u.).

“GCGCCCGTAGCTTGTCCGAAGGAACCTTGCAATGTTTAACCGGAGTCACCTAGTGCAG”: the binding signal was 8360 fluorescence intensity (a.u.).

With “ATCCAACCCAACTCCCGTTGCTTTTTGTTGGACCCACTTGCGGAGTCACCTAGTGCAG”, the binding signal was 8110 fluorescence intensity (a.u.).

In the case of “ACGGTGCGGTCTTGATTCGTGATTTTTCTCTCCTTCGCATCGGAGTCACCTAGTGCAG”, the binding signal was 8520 fluorescence intensity (a.u.).

Turning to “ACCCGCTGATTGATTGATTGGTTTGTCTTGGTCGTTGGCTCGGAGTCACCTAGTGCAG”, the binding signal is 9690 fluorescence intensity (a.u.).

Consider “GCAGGTAGACAAAACCATTACACGGTCAGAGATAAATTTTCGGAGTCACCTAGTGCAG”, for which the binding signal is 8080 fluorescence intensity (a.u.).

Regarding “AAACCCTAACCCTAGCTCCCCAATCCGCCCGTTCCGGCCACGGAGTCACCTAGTGCAG”, the binding signal is 8810 fluorescence intensity (a.u.).

On to “CTCAGGTCCCATCTGTCAGTCTCTCTTCAGCTTGCCATATCGGAGTCACCTAGTGCAG”, for which the binding signal was 10300 fluorescence intensity (a.u.).

Regarding “ACTACTTGTTACTGTACTAATACATTCCTTTTTCTTTTCGCGGAGTCACCTAGTGCAG”, the binding signal was 9130 fluorescence intensity (a.u.).

For the sequence “AGATCCATTTTTTTCTTTTCTTTTCACCCTAATTCTGAGTCGGAGTCACCTAGTGCAG”, the binding signal was 8310 fluorescence intensity (a.u.).

Consider “CCGGCCTCCATTGATCACCACCCCGACGCCTTCGTCCAGGCGGAGTCACCTAGTGCAG”, for which the binding signal was 8540 fluorescence intensity (a.u.).

As for “GCCTCCACTGCCGCCACGAGAGCCGAACCACGCAGACCTACGGAGTCACCTAGTGCAG”, the binding signal was 8200 fluorescence intensity (a.u.).

Regarding “CCATGTTGACAAATGTTCTATTCTCTATATTCGTGCATTCCGGAGTCACCTAGTGCAG”, the binding signal was 8920 fluorescence intensity (a.u.).

Consider “CCCGACCTCTACCACGCCCTCGCCGCCGTCGCCGCCGCCGCGGAGTCACCTAGTGCAG”, for which the binding signal is 11700 fluorescence intensity (a.u.).

Consider “GTATCATGTCCCTTGTGATCTTTATTACTTCTACTTCGATCGGAGTCACCTAGTGCAG”, for which the binding signal was 8560 fluorescence intensity (a.u.).

Turning to “GTTTTCGAATCTAACTTTAACCTTTATCAACTCCCACCCTCGGAGTCACCTAGTGCAG”, the binding signal was 8020 fluorescence intensity (a.u.).

Regarding “CTGATGGCACAGCTCGGTCCTTCTCGGCCGCCTTCGTGTTCGGAGTCACCTAGTGCAG”, the binding signal was 8810 fluorescence intensity (a.u.).

With “CCATCCGATTCCCGATCCCACCACCACCCGCCGCTTTAATCGGAGTCACCTAGTGCAG”, the binding signal was 11400 fluorescence intensity (a.u.).

Regarding “GATTATTTCTACTTATATATCTCTCGATCTTCACAAATTACGGAGTCACCTAGTGCAG”, the binding signal was 8320 fluorescence intensity (a.u.).

As to “GCATCATCGTGGTGTCGTCTCTTCCACGTCAACCGTATTACGGAGTCACCTAGTGCAG”, the binding signal is 9420 fluorescence intensity (a.u.).

For the sequence “ATCGAACGCTTTTTTTTATATAATTAAAACCTTCATTCTACGGAGTCACCTAGTGCAG”, the binding signal is 8130 fluorescence intensity (a.u.).

With “TTTTATACTTACATTCCTATCAAAATTCTGCGTTTTTCCTCGGAGTCACCTAGTGCAG”, the binding signal is 8210 fluorescence intensity (a.u.).

Consider “CATGTGTTTGATTTCCTGTTTATATTTTGTTCAGAGTTTCCGGAGTCACCTAGTGCAG”, for which the binding signal is 11700 fluorescence intensity (a.u.).

In the case of “CTTGGATTTGGGTGTTTGTAAATGGCATTTCTTGGATTTTCGGAGTCACCTAGTGCAG”, the binding signal was 8570 fluorescence intensity (a.u.).

Take “GCTGCAAATAATCGACTTTCTCTCTCTCTAGTCTCTATATCGGAGTCACCTAGTGCAG”: the binding signal is 11100 fluorescence intensity (a.u.).

“TGATGTATTGGGGTTTTTTTATACAGCTGCAATTCCATCGCGGAGTCACCTAGTGCAG”: the binding signal was 8060 fluorescence intensity (a.u.).

With “GGTAGGTCTGGATTAATGGTCGTTGTTTTCCAGATTTTAACGGAGTCACCTAGTGCAG”, the binding signal was 8340 fluorescence intensity (a.u.).

Take “GAGTCTTTCACCATTCTTACCCCGACGCGGCGTCTCCTCCCGGAGTCACCTAGTGCAG”: the binding signal is 8080 fluorescence intensity (a.u.).

As to “AGAGATTCCCACCCCGCGATTCCCTTGCAGGCCGCCAGATCGGAGTCACCTAGTGCAG”, the binding signal is 8060 fluorescence intensity (a.u.).

Take “AATCTTCTTTGTCTCTCTTGTGCATGTTCTTTGTTTGAATCGGAGTCACCTAGTGCAG”: the binding signal is 11000 fluorescence intensity (a.u.).

Regarding “GTTTGACCATTTATCTTATTCAAAAAATTTTGGATTATTACGGAGTCACCTAGTGCAG”, the binding signal is 8520 fluorescence intensity (a.u.).

As to “GCATTACAAATCTTCTTCGATTCGAATTCAGTACAAATTTCGGAGTCACCTAGTGCAG”, the binding signal was 8340 fluorescence intensity (a.u.).

“TTCCTTTCTGTCTGTGCCGTGTGTTTCCTTTTTATCCTGTCGGAGTCACCTAGTGCAG”: the binding signal was 11800 fluorescence intensity (a.u.).

For the sequence “TCTGGCTTGTTATGATTGTGCCAGTAGCGTCCTATCCTACCGGAGTCACCTAGTGCAG”, the binding signal was 8960 fluorescence intensity (a.u.).

“TCTGGTACGTCATCCGTGTATGTGTTGGTTTTTAACCGTACGGAGTCACCTAGTGCAG”: the binding signal was 10900 fluorescence intensity (a.u.).

In the case of “ATTTTTGAACATTTTATCTCTGCCATATCATGCTATTTCACGGAGTCACCTAGTGCAG”, the binding signal was 9220 fluorescence intensity (a.u.).

Turning to “AGAGGACCCAGCATCACATAATAGTAGTCTGCGTAATAATCGGAGTCACCTAGTGCAG”, the binding signal was 9270 fluorescence intensity (a.u.).

In the case of “GAGTAGTAAGTTATATCCCTCAACCATTTCACTTCACACACGGAGTCACCTAGTGCAG”, the binding signal was 9600 fluorescence intensity (a.u.).

With “TCTCTCTACCATCTCTGTCGTCCAACCTCTTAGTTTCCTGCGGAGTCACCTAGTGCAG”, the binding signal was 11600 fluorescence intensity (a.u.).

Take “CTCCCATTTGCGCAGCATTCCTTCGTGGCTTGGTGGTGTACGGAGTCACCTAGTGCAG”: the binding signal was 8530 fluorescence intensity (a.u.).

For “CCCATCTCCCGTTGCATTATCCTCTCTTTTCTTGATTTCCCGGAGTCACCTAGTGCAG”, the binding signal is 9090 fluorescence intensity (a.u.).

Take “CGGGGTTTCACTTGGTTTTAATTGTTCCTGTGCTGCGTCGCGGAGTCACCTAGTGCAG”: the binding signal is 18700 fluorescence intensity (a.u.).
